US9568467B2, “Inhibitors of micro-RNAs for use for preventing and/or attenuating skin ageing” (CHANEL PARFUMS BEAUTE, priority 2012, dated 2017)
Some entries share one result that the patent states for a list of compounds.

Tested on: human dermal fibroblasts
Experiment: Senescence-associated β-galactosidase staining after transfection
Format: cell-based
Settings: 96 hours after transfection

Substance	SA-β-galactosidase staining increase (blue-cell/field) as compared with negative control
miR-152: human pre-miR-152 (Ambion) transfected into fibroblasts; mature miR-152 SEQ ID No. 2 UCAGUGCAUGACAGAACUUGG (delivered as commercial pre-miR precursor, further chemistry not given here; listed as Homo sapiens)	4-4.5 folds
miR-134: human pre-miR 134 (Ambion) transfected into fibroblasts; mature miR-134 SEQ ID No. 1 ugugacugguugaccagagggg (UGUGACUGGUUGACCAGAGGGG; delivered as commercial pre-miR precursor, further chemistry not given here; listed as Homo sapiens)	4-4.5 folds
